# PubChem BioAssay AID1259267 | Sanger Institute | 2017
# Aim: 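Which kinases and bowel-cancer genes GP5D cells need, with or without anchor drugs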 (primary screen)
# Cells: human GP5D colorectal cancer cells
# Reagent: siRNA pool against human genes
# Treatment: anchor drugs at low dose: BYL719 1 µM, cetuximab 5 µg/ml, trametinib 10 nM, or DMSO vehicle
# Measurement: 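Viability against non-targeting pool, replicate mean: robust z-score for knock-down alone, fraction with DMSO, synergy with BYL719 1 µM, cetuximab 5 µg/ml, trametinib 10 nM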
# Scale: robust z-score, knock-down alone and viability with DMSO: higher = more viable cells; synergy score with trametinib and synergy score with BYL719 and synergy score with cetuximab: higher = stronger synthetic lethal synergy with drug
# Active means: 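a robust z-score below -3 for the knock-down by itself makes a gene active, i.e. essential alone; synergy scores are ignored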
# Meaning of the calls: active = essential alone; inactive = not essential
# The whole screen tested 794 reagents; below is an unselected part. Of all reagents, 9 (1.1%) are marked active. 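Viability capped at 1; calls reflect loss of viability from knock-down alone, not synergy with drugs.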 A number with no mark means an inactive call. Reagent sequences are not shown. Not given: the amount of reagent, the time to read-out.
"robust z-score, knock-down alone",viability with DMSO (fraction of control),synergy score with trametinib,synergy score with BYL719,synergy score with cetuximab,Gene
0.817,1,0.253,-0.0144,-0.142,MPP2
0.817,1,-0.166,-0.361,-0.142,MKNK1
0.817,1,-0.0157,-0.0894,-0.142,DGKG
0.426,0.917,-0.263,-0.304,-0.213,ROS1
0.387,0.909,0.367,-0.104,0.127,PTK2B
0.817,1,0.0249,-0.145,-0.0106,FASTK
0.811,0.999,0.0908,-0.189,-0.0233,ACVRL1
-2.15,0.372,0.0796,-0.18,-0.0107,EEF2K
0.817,1,0.0608,0.0614,0.0123,AMER1
-0.66,0.687,-0.148,-0.167,-0.224,TP53
0.74,0.984,0.0604,-0.316,-0.0886,GRK3
-0.2,0.784,-0.226,0.114,-0.141,LATS1
0.588,0.951,-0.0649,-0.276,-0.146,CDK9
0.328,0.896,0.358,0.0542,0.19,PIM2
0.249,0.88,-0.145,-0.188,-0.119,PNCK
0.475,0.927,0.256,-0.0308,-0.134,MAP3K8
0.481,0.929,-0.133,-0.147,-0.203,MAP3K2
-0.189,0.787,-0.193,-0.295,-0.146,ABL2
0.817,1,-0.168,0.0549,-0.0306,MAPK7
0.817,1,-0.197,-0.361,-0.142,SKAP1
0.563,0.946,-0.167,-0.15,-0.188,PIK3CD
0.817,1,0.0726,-0.307,-0.142,LMBR1
-0.606,0.698,-0.345,-0.421,-0.23,LATS2
0.688,0.973,0.279,-0.11,-0.0491,NF1
0.698,0.975,0.325,0.0579,0.0766,BRD4
0.817,1,0.208,-0.0873,-0.0365,NEK9
0.817,1,0.0284,-0.0863,-0.142,EPHA5
0.817,1,0.0131,-0.349,-0.142,ITK
-1.5,0.509,0.0695,-0.137,0.0605,MAP2K7
0.817,1,-0.0524,-0.0885,0.0132,BLK
-0.576,0.705,0.107,-0.226,-0.0706,ULK2
-0.381,0.746,0.206,-0.12,-0.126,KMT2B
0.817,1,-0.0212,-0.253,-0.103,NEK10
0.817,1,-0.0318,0.0111,-0.142,MAP3K11
0.185,0.866,0.0449,-0.133,-0.177,UCK2
0.788,0.994,0.234,0.0125,0.0319,CDKN2D
0.817,1,-0.161,-0.193,-0.142,TGFBR1
0.817,1,0.152,0.0279,0.118,PTK2
0.663,0.967,0.429,-0.0933,0.0351,GRK2
0.817,1,-0.126,-0.361,-0.142,NIM1K
0.285,0.887,-0.258,-0.38,-0.213,EPHA2
-0.783,0.661,0.136,-0.0498,0.181,IRAK3
-1.43,0.524,0.058,0.0157,-0.147,NUAK1
0.817,1,-0.197,-0.361,-0.142,TRPM6
-0.693,0.68,-0.335,-0.113,-0.112,IPPK
0.817,1,-0.0766,-0.181,-0.0723,WHR1
-0.0796,0.81,0.328,-0.0226,0.0487,NLK
0.817,1,-0.105,-0.188,-0.142,TRPM7
-1.65,0.478,-0.246,-0.355,-0.0339,PTEN
-1.31,0.55,0.0064,-0.378,0.0689,PASK

3 entries from above, sorted by “synergy score with trametinib”, ascending.
"robust z-score, knock-down alone",viability with DMSO (fraction of control),synergy score with trametinib,synergy score with BYL719,synergy score with cetuximab,Gene
0.285,0.887,-0.258,-0.38,-0.213,EPHA2
0.817,1,-0.126,-0.361,-0.142,NIM1K
-0.783,0.661,0.136,-0.0498,0.181,IRAK3
